The values are deposited in ChEMBL (CHEMBL3988442, “University of Dundee, Small-Polar-MMV Screening Library” (2021)).

Toxoplasma: 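Assay of Toxoplasma gondii numbers, read through their beta-galactosidase reporter with a colour substrate. Concentration: 10 µM. The record gives no direction; the compounds picked for IC50 retests had high values, so higher reads as fewer parasites. About 67,000 compounds were tested under these conditions; 0.38% (about 260) showed 50% or more at least once.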
Leishmania in macrophages: 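Cell assay of Leishmania donovani living inside macrophages; the read-out is not stated. Concentration: 30 µM. Direction is inferred from retests: higher values go with stronger inhibition. Size under these conditions: about 69,000 compounds, about 1,000 of them at 50% or above in at least one test.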

Results are given as percent effect.
The record does not define 0% and 100%; most values in the screen are far below 50% and negative numbers occur (in some assays of this library far below -100).
This is an unselected part of the compounds tested.
Two or more numbers in one place are separate tests of the same structure; such repeats can differ widely.
A dash means the value is not listed here; it may have been measured.

Compound | Toxoplasma | Leishmania in macrophages
N#Cc1c(N)nc2c(c1-c1c[nH]nc1C1CCCCC1)COCC2 | 34 | -3.881
[H][C@@]12CCN(Cc3ccco3)C[C@@]1([H])O[C@@H](C)C2 | -29.35 | 15.35
Cc1nc(N2CCN(C(=O)c3ccncc3)CC2)c2c(n1)c(C)nn2C | 77.24 | 8.993
CNc1cc(-c2ccc(COCCN)cc2)c2cc[nH]c2n1 | -9.614 | -14.52
O=C(O)C(F)(F)F.O=C(O)C(F)(F)F.[H][C@]12CCN(c3ncccn3)[C@@]1([H])CC[C@H](COCc1ccccn1)O2 | -2.327 | 18.72
Cc1cc(F)ccc1CNCCn1cccn1 | -3.024 | 19.66
COCCc1noc(C2CCCN(c3ncnc4c3CCC4)C2)n1 (centres unmarked) | 0.4953 | 35.19
CC(C)(C)CNCC1(O)CCCN(Cc2ccccc2F)C1=O (centres unmarked) | 18.38 | 27.85
CN(C)c1cc(CNC(=O)Nc2cccnc2N2CCCC2)ccn1 | 7.641 | 27.12
c1cc(CCN2CCCC2CN2CCCCC2)ccn1 (centres unmarked) | -4.952 | -13.5
NC(=O)CN(Cc1ccc(Br)cc1)C(=O)c1ccccn1 | 0.7956 | 16.13
[H][C@]12CC[C@]([H])(CN(c3cnccn3)C1)N(C(=O)c1sc(NC)nc1C)C2 | -9.613 | 9.224
O=C(c1scc2c1OCCO2)N1CCN(Cc2cccc(F)c2)CC1 | 1.897 | -1.04
O=c1n(Cc2ncccn2)nc(C2CCNCC2)n1-c1ccccc1 | 4.85 | 31.65
Cc1nc(CN(C)C2CCN(CCC(=O)N3CCOCC3)C2)no1 (centres unmarked) | -5.873 | -13.53
c1cnn(CC2CCCCN2Cc2nc(-c3ccsc3)no2)c1 (centres unmarked) | -6.65 | 23.11
N#Cc1ccc(S(=O)(=O)NC(=O)C2CC(c3ccccc3)=NO2)cc1 (centres unmarked) | -5.169 | -12.63
CCc1nccn1-c1cncc(C2CCCN2Cc2cccnc2)n1 (centres unmarked) | -14.92 | 38.55
CC(=O)N1Cc2ccnn2CC(C(=O)NCc2cccnc2)C1.O=C(O)C(F)(F)F (centres unmarked) | -18.2 | 28.29
Cc1cc(CN2CCc3cncnc3C2)on1 | 9.976 | 0.3971
O=C(O)C(F)(F)F.[H][C@@]12CCCO[C@]1([H])[C@H](NC(=O)N(C)C)CN2C1CCOCC1 | -0.378 | 48.17 and 1.834
Cc1nnc(C2CCN(c3ccccc3)CC2)o1 | -3.662 | -3.511
CC(C)N1CCOCC2(CCN(c3cnccn3)CC2)C1.O=C(O)C(F)(F)F | 29.46 | 13.83
CN(C)c1cccc(C(=O)Nc2cnn(Cc3ccncc3)c2)c1 | 2.17 | 16.84
CNC(=O)C1(c2cnccn2)CCCN1C(=O)c1cccnc1OC (centres unmarked) | -44.18 | 23.47 and 9.522
CCc1cccc(OC2CN(C(=O)[C@@H](N)[C@@H](C)O)C2)c1 | -4.806 | 21.71
CC(NC(=O)Nc1nccs1)C(=O)NC1CCCC1 (centres unmarked) | -4.567 | -27.29
CN(C(=O)OC(C)(C)C)C1CCN(C(=O)c2ccc(Cl)o2)C1 (centres unmarked) | 7.487 | 9.328
CCS(=O)(=O)CC(=O)NC1CCc2nccn2C1 (centres unmarked) | 3.605 | 17.98
Cc1ccc(CN2CCC3(CC2)CN(c2cnn(C)c2)C(=O)CO3)o1.O=C(O)C(F)(F)F | -5.561 | 7.145
CCN(CC)CCCC(C)NC(=O)c1cccnc1-n1cccn1 (centres unmarked) | -17.29 | -32.32
O=C(O)C(F)(F)F.[H][C@@]12CN(C(=O)N3CCCC3)C[C@]1([H])OCCN2Cc1c(C)noc1C | -0.7476 | 23.4
CCCC(C)C(=O)NCc1cn2cc(Br)ccc2n1 (centres unmarked) | 0.8547 | -10.64
CC(=O)N1N=C(COc2ccc(Cl)cc2)OC1c1ccccc1 (centres unmarked) | 12.01 | 31.64 and -7.887
Cc1noc(C)c1-c1cncc(C2CCCN2Cc2ncccc2F)n1 (centres unmarked) | 6.607 | 19.56
[H][C@@]12CN(Cc3cccc(F)c3)C[C@]1([H])OCCN2CC(=O)N(C)C | -13.62 | 36.98
Cn1nc(C(=O)NC2CC(C)(C)NC(C)(C)C2)cc1NC(=O)C1CC1 | -5.464 | -2.744
CC(C)OCCCNC(=O)CS(=O)(=O)Cc1cccc(Cl)c1 | -2.897 | 24.88
Cn1ccn2ncc(C(=O)NCc3cccnc3N3CCCC(O)C3)c12 (centres unmarked) | -11.46 | -11.53
Cc1ccc(C)c(S(=O)(=O)CCNC2CCc3ncnn3C2)c1 (centres unmarked) | -6.244 | 28.38
Cc1cc(CNc2ccccc2Cl)no1 | 19.17 | 14.17
Cc1ccc(C(=O)N2CCC3(CC2)NC(=O)CC3c2ccccc2)cn1.O=C(O)C(F)(F)F (centres unmarked) | 2.671 | 5.254
Cc1csc(CCNc2ccc(C#N)cn2)n1 | -21.86 | 8.184
COc1ccc(CC(=O)Nc2ccc3ncn(C(C)C)c(=O)c3c2)cc1 | 10.21 | -3.891
CCC(C)Sc1ncc(-c2c(C#N)c(N)nc3c2COCC3)cn1 (centres unmarked) | - | -18.88
O=C(Cn1nc(N2CCOCC2)ccc1=O)Nc1nccs1 | 11.94 | -3.52

The last 3 entries again:

COc1ccc(CC(=O)Nc2ccc3ncn(C(C)C)c(=O)c3c2)cc1 read Toxoplasma: 10.21%; Leishmania in macrophages: -3.891%.
CCC(C)Sc1ncc(-c2c(C#N)c(N)nc3c2COCC3)cn1 (centres unmarked) read Leishmania in macrophages: -18.88%.
O=C(Cn1nc(N2CCOCC2)ccc1=O)Nc1nccs1 read Toxoplasma: 11.94%; Leishmania in macrophages: -3.52%.